Experimental findings from PMC7819943, “Rice protein-binding microarrays: a tool to detect cis-acting elements near promoter regions in rice” are described below.

Sequences of proteins named here, by UniProt entry; tags and fusion partners are left off.
UniProt Q0JBA9, entry or part of it: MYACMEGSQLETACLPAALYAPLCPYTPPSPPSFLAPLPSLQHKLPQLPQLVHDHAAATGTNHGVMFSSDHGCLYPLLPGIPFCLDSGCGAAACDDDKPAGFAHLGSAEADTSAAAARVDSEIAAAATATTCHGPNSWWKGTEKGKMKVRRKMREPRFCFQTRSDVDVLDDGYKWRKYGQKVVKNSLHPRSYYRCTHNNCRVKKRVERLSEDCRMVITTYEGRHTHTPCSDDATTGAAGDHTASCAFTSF

Some of the results follow.

For the test, the target named is OsWRKY34 (Oryza sativa, UniProt Q0JBA9 1-250). Put plainly: protein-binding microarray (RPBM); PBS, 2% BSA, 51.3 ng/ul salmon testes DNA, 50 uM zinc acetate, 200 nM TF, 25 C, 1 h; high values mean tight binding. The conditions noted are these: protein: recombinant; tags: N-terminal polyhistidine and DsRed monomer fusion (pET32a); label: CyDye5-dUTP incorporated in the synthesized complementary strand; 3' TTTTT single-stranded linker to array surface; dsDNA, one strand shown. In short, it runs like this:
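The binding signal is fluorescence intensity per array feature (arbitrary units). Readings came from an Axon 4000B scanner after a washed, 2% BSA-blocked, double-stranded custom Agilent array had been incubated for 1 h at 25 °C with 200 nM protein and 50 µM zinc acetate. The protein was a Ni–NTA-purified transcription factor fused N-terminally to polyhistidine and DsRed, expressed in E. coli BL21-CodonPlus.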
“TACGCAAAAACTTTTCATCCTGTCACATCGAATGTTTGGACGGAGTCACCTAGTGCAG”: the binding signal was 8300 fluorescence intensity (a.u.).
The result for “TTATTCCACTCCCAGCTGGTGTTGCACATTGGTTCTACAACGGAGTCACCTAGTGCAG” reads 8880 fluorescence intensity (a.u.); that for “ATCATTTTTTTCGATTATTGGTAGTATCATTAGTTTTTATCGGAGTCACCTAGTGCAG”, 10400 fluorescence intensity (a.u.); that for “TGATTTTTCCGCTATTTTCTCCCACGGTTTCCACGTCGCGCGGAGTCACCTAGTGCAG”, 9360 fluorescence intensity (a.u.).
As to “AACAATTAGCGATCTCCCACTTCTAAACAGCGGTTTTTTTCGGAGTCACCTAGTGCAG”, the binding signal was 8180 fluorescence intensity (a.u.).
Take “CCTTCACTCGCCCGTGTCTTTAAAACCGGGTCACGCGCGTCGGAGTCACCTAGTGCAG”: the binding signal is 8190 fluorescence intensity (a.u.).
Turning to “TCATGGTATTTATTTGGTTTCCACTAACCCTGTTCATGGTCGGAGTCACCTAGTGCAG”, the binding signal is 11700 fluorescence intensity (a.u.).
As for “CTCTGTGGGGCTTTGGACGGCCGGCGGTGGGGACGAGGTCCGGAGTCACCTAGTGCAG”, the binding signal is 8080 fluorescence intensity (a.u.).
With “GCGTCCAATCCCCACCCTCCATTCGACCTCCTTCTTAACTCGGAGTCACCTAGTGCAG” the figure was 9970 fluorescence intensity (a.u.).
Take “GCGGCGGACTTCTCCCTCGGCGCCGCCATCTCTCGCCGCCCGGAGTCACCTAGTGCAG”: the binding signal is 9190 fluorescence intensity (a.u.).
Regarding “CTTCGCACGTTCGCCCGCTTAGAAAATCTCTTCGCTCGGACGGAGTCACCTAGTGCAG”, the binding signal was 8530 fluorescence intensity (a.u.).
On to “GCTTACATTACTGTATATATCACCTTCTCCGCTCATTTCTCGGAGTCACCTAGTGCAG”, for which the binding signal was 11100 fluorescence intensity (a.u.).
As for “TTTGTTAGGTTGTGTTCCTTAGCATGCACATATTCCCAAACGGAGTCACCTAGTGCAG”, the binding signal was 9440 fluorescence intensity (a.u.).
For the sequence “GCATATCCTACGTTCTCTCCTGTATCCTCCCGTGCATCGGCGGAGTCACCTAGTGCAG”, the binding signal was 8880 fluorescence intensity (a.u.).
Consider “GTCCCTACTGTTTACTACCACTCTTTCTGATCTATGTAGACGGAGTCACCTAGTGCAG”, for which the binding signal was 9750 fluorescence intensity (a.u.).
With “ACATTAGATCTGTTCAGCGATTCGTGCTGTATTTTCTCACCGGAGTCACCTAGTGCAG” the figure was 8900 fluorescence intensity (a.u.).
As for “AGCTCTAGCTTTCTCTTCTTCCTAGCAAATTATAATTAACCGGAGTCACCTAGTGCAG”, the binding signal was 8300 fluorescence intensity (a.u.).
For “AGAGGTGGAGGAGAGGAGGGGAGGGGAGGGGAGGTGAGGGCGGAGTCACCTAGTGCAG”, the binding signal was 18700 fluorescence intensity (a.u.).
“CCCTATCCGCCCACACCGTCGCGCTCCAACTACCCACTACCGGAGTCACCTAGTGCAG”: the binding signal was 9030 fluorescence intensity (a.u.).
Take “TAGGGCATATTTGGGTTTGTCTTACATGATTATCAACTTACGGAGTCACCTAGTGCAG”: the binding signal was 13400 fluorescence intensity (a.u.).
Turning to “ATTGCTGTCGCCTTTCTTGATTTTTCTTTTTACTGATCTCCGGAGTCACCTAGTGCAG”, the binding signal is 9620 fluorescence intensity (a.u.).
As for “CGCCTGCTGCTTCGACCGCCACTACCTCAACCTGCAATCCCGGAGTCACCTAGTGCAG”, the binding signal was 8500 fluorescence intensity (a.u.).
Consider “TTCTGGATCTTGACTCTTGACCAGTTCATCCACACGTGTGCGGAGTCACCTAGTGCAG”, for which the binding signal is 8540 fluorescence intensity (a.u.).
“CACATCCACGTGTCCGCGTCGTTTGCCTCCTCGCCAATATCGGAGTCACCTAGTGCAG”: the binding signal was 12100 fluorescence intensity (a.u.).
Consider “GTCTACTTGTTTGGTGTAATTTATTTTTTTTCTTTCGCTTCGGAGTCACCTAGTGCAG”, for which the binding signal was 9740 fluorescence intensity (a.u.).
For “TGTTTTTCGTTCATTCATAGGATCAAGTGCTCCAATAATTCGGAGTCACCTAGTGCAG”, the binding signal is 8430 fluorescence intensity (a.u.).
The result for “AACTTTTCTATCACATCAAAACATTTCTACACACACAAACCGGAGTCACCTAGTGCAG” reads 9200 fluorescence intensity (a.u.); that for “TTCTTGATCTTTCTGGTTTCTACTGGTTGATTGTACACTTCGGAGTCACCTAGTGCAG”, 8500 fluorescence intensity (a.u.); that for “GTTCCTCGTGTACGCTTTTCAAATTGCTAAACGTTTTTTCCGGAGTCACCTAGTGCAG”, 9350 fluorescence intensity (a.u.).
On to “TATTATTTTACCTCAATAACTCTAGCTCCAGTCCCTTCTACGGAGTCACCTAGTGCAG”, for which the binding signal is 8180 fluorescence intensity (a.u.).
With “ACTCTTTCATGCAATAAACATCTACAACGTAATATCTTCTCGGAGTCACCTAGTGCAG” the figure was 8130 fluorescence intensity (a.u.); with “GACCGAACTACTAACCGAATTTCTCGATTTCGGTCTTTTCCGGAGTCACCTAGTGCAG”, 8450 fluorescence intensity (a.u.).
Turning to “TGGGGATGGCTGGTGAAGTGGCAGATTAGGGCTGAAAGCTCGGAGTCACCTAGTGCAG”, the binding signal was 8650 fluorescence intensity (a.u.).
“ACCTATTGGGGCCTTGTCCGCAAAAATCGATTATGTACTACGGAGTCACCTAGTGCAG”: the binding signal was 8630 fluorescence intensity (a.u.).
As for “AGTTCTGAAGGCTCCTTGCTCTGCGTCTTGTACATACATACGGAGTCACCTAGTGCAG”, the binding signal was 10900 fluorescence intensity (a.u.).
On to “TCCCCATCGATCGACGTCCTCCGCCTGATGAGCACCCGCTCGGAGTCACCTAGTGCAG”, for which the binding signal was 10000 fluorescence intensity (a.u.).
For “CGTGACATGAGGGACCATATGGTGGGGTGGGCCCACGCGTCGGAGTCACCTAGTGCAG”, the binding signal was 8090 fluorescence intensity (a.u.).
Turning to “TAGAGTTTGCAATTCTTGGGGTCTTATATTGCTTTTGGTTCGGAGTCACCTAGTGCAG”, the binding signal is 9820 fluorescence intensity (a.u.).
With “TCACCCCTCAGCTTTCACCCGCGCCGCCTTTTCCACCACCCGGAGTCACCTAGTGCAG”, the binding signal is 8420 fluorescence intensity (a.u.).
As to “TTTGTTTTTTAATAGATGACGCTGTTGACTTTTTCTCACGCGGAGTCACCTAGTGCAG”, the binding signal is 14200 fluorescence intensity (a.u.).
On to “TTTTTCTTTCTTCCCAGACTTTTTCTCCAAGTTCAACTCCCGGAGTCACCTAGTGCAG”, for which the binding signal is 8040 fluorescence intensity (a.u.).
For the sequence “GAGAGTCGGGGTGGGGCTGCAGTGCGCGACGATGTCCGAGCGGAGTCACCTAGTGCAG”, the binding signal was 8860 fluorescence intensity (a.u.).
